Measurements: PMC12005740
No constants are given. Whether binding was seen depends on the method and setting. In cells and extracts the contact can be indirect. Some binding calls cover weakened binding; strength is not graded here.

T1: Stimulator of interferon genes protein (STING) (mouse (endogenous in L929)) (UniProt Q3TBT3)
T1 sequence: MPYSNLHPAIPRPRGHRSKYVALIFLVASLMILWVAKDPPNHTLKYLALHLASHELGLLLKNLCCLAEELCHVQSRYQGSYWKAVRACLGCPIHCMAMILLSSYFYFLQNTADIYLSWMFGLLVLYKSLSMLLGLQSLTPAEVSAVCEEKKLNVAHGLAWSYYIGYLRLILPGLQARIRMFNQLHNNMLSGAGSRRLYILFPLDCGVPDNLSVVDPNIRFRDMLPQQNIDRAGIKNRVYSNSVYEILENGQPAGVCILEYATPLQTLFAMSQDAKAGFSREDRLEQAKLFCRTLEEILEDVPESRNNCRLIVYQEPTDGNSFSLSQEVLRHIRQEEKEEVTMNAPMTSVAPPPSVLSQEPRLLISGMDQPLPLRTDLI

B1: SEC24C (protein, UniProt G3X972 1-1096)
chain: MNVNQSAPPVPPYGQNQPIYPGYHQSSYGGQPGPAAPATPYGAYNGPVPGYQQAPPQGVPRAPPSSGAPPASAAQVPCGQTTYGQFGQGDIQNGPSSTAQMQRVPGSQQFGPPLAPVVSQPAVLQPYGPPPTSTQVTAQLAGMQISGAVAQAPPPSGLGYGPPTSLASASGNFPNSGPYGSYPQSQAPPLSQAQGHPGVQPPLRSAPPLASSFTSPASGGPQMPSMTGLLPPGQGFGSLPVNQANHVSSPPAPALPPGTQMTGPPVPPPPPMHSPQQPGYQLQQNGSFGPARGPQPNYESPYPGAPTFGSQPGPPQPLPPKRLDPDAIPSPIQVIEDDRNNRGSEPFVTGVRGQVPPLVTTNFLVKDQGNASPRYIRCTSYNIPCTSDMAKQAQVPLAAVIKPLARLPPEEASPYVVDHGESGPLRCNRCKAYMCPLMTFIEGGRRFQCSFCSCVNDVPPQYFQHLDHTGKRVDAYDRPELSLGSYEFLATVDYCKNNKFPSPPAFIFMIDVSYNAIRTGLVRLLCEELKSLLDYLPREGGAEESAIRVGFVTYNKVLHFYNVKSSLAQPQMMVVSDVADMFVPLLDGFLVNVSESRAVITSLLDQIPEMFADTRETETVFAPVIQAGMEALKAAECAGKLFLFHTSLPIAEAPGKLKNRDDRKLINTDKEKTLFQPQTGTYQTLAKECVAQGCCVDLFLFPNQYVDVATLSVVPQLTGGSVYKYACFQVENDQERFLSDLRRDVQKVVGFDAVMRVRTSTGIRAVDFFGAFYMSNTTDVELAGLDGDKTVTVEFKHDDRLNEENGALLQCALLYTSCAGQRRLRIHNLALNCCTQLADLYRNCETDTLINYMAKFAYRAVLNSPVKTVRDTLITQCAQILACYRKNCASPSSAGQLILPECMKLLPVYLNCVLKSDVLQPGAEVTTDDRAYVRQLVSSMDVAETNVFFYPRLLPLTKSPLDSTAEPPAVRASEERLSSGDIYLLENGLNLFVWVGASVQQGVVQSLFNVSSFSQITSGLSVLPVLDNPLSKKVRGLIDSLRAQRMRYMKLIVVKQEDKLEMLFKHFLVEDKSLSGGASYVDFLCHMHKEIRQLLS
B2: Ubiquitin Specific Peptidase 1 (USP1) (enzyme, UniProt Q8BJQ2 1-784)
chain: MPGVIPSESNGLSRGSPSKKNRLSLKFFQKKETKRALDFTDSQENEEKTSEYRGSEIDQVVPAAQSSPVSCEKRENLLPFVGLNNLGNTCYLNSILQVLYFCPGFKTGVKHLFNIISRKKEALKDDSNQKDKGSCKEESLASYELICSLQSLIISVEQLQASFLLNPEKYTDELATQPRRLLNTLRELNPMYEGFLQHDAQEVLQCILGNIQETCQLLKKEEIKNLAELSGKVEEQSLQKEETGGITSTEIDSMRNTEDVKEQLPKGNWKRKSDSESSNVKKKVKLSRESQPLEENQRQTRSKRKAIGDTLEAAPKIIPKCVSESESAKPSQKKSKVKINWLKPSTKQPSILSKFCSLGKITTNQRSKGQPKEKEGDVEEDLEKYGSDHTANGGPESPGSSVTPVDSSEAKSGNKGAEQIGFELVEKLFQGQLVLRTRCLECESLTERREDFQDISVPVQEDELSKVEESSEISPEPKTEMKTLRWAISQFASVERIVGEDKYFCENCHHYTEAERSLLFDKMPEVITIHLKCFAASGLEFDCYGGGLSKINTPLLTPLKLSLEEWSTKPTNDSYGLFAVVMHSGITISSGHYTASVKVTDLNSLELDEGNFVVDQMCELGKPEPLTEEQARGTAGNYDDEVSIRVGGNAQPSKVLNKKNVEGIGLLGGQKSKADYELYNKASNPDKVVGTPFTDNRNSETNDTTNGTHESDRNKESSDQTGVNMNGLENKISYVVQSLKEYEGKWLLFDDSEVKVTEEKDFLNSLSPSTSPTSTPYLLFYKKL

Legend:
[1] = target: T1, Stimulator of interferon genes protein (STING) (mouse (endogenous in L929)); test: condition: only cells without the combined ML323 + S-cddA treatment; co-IP; as a1, the samples of L929 cells that did not get ML323 combined with S-cddA (either alone)
[2] = target: T1, Stimulator of interferon genes protein (STING) (mouse (endogenous in L929)); test: co-IP; L929 cells stimulated with S-cddA (100 nM), ML323 (5 uM) or both for 1 or 2 h; IP lysis buffer; 1 mg/500 uL lysate with primary antibody overnight at 4 C, Protein A + G Agarose 4 h, TBS washes; Western blot

| Binder | binding [1] | binding [2] |
| --- | --- | --- |
| B1 | no binding | binds |
| B2 | – | no binding |
